Values of other authors as cited in patent publication US20160120832A1, “LIPID SCAVENGING IN RAS CANCERS” (MEMORIAL SLOAN KETTERING CANCER CENTER, priority 2013, published 2016).
At least one compound was matched to its structure with a doubt left.

System: cells
Settings: free fatty acid; cell line not stated; cited from earlier work

CCCCCCCC/C=C\CCCCCCCC(=O)O [oleate (C18:1), oleate]
rescue of cells from SCD1 inhibition: can also rescue cells from SCD1 inhibition
